{"source": "paper PMC4031084", "about": "“The Phytochrome B/Phytochrome C Heterodimer Is Necessary for Phytochrome C-Mediated Responses in Rice Seedlings” (PLoS ONE, 2014)", "binders": {"B1": {"name": "rice phytochrome B (phyB), native (natural protein, UniProt Q10MG9 1-1171, looked up)", "chain": "MASGSRATPTRSPSSARPAAPRHQHHHSQSSGGSTSRAGGGGGGGGGGGGGAAAAESVSKAVAQYTLDARLHAVFEQSGASGRSFDYTQSLRASPTPSSEQQIAAYLSRIQRGGHIQPFGCTLAVADDSSFRLLAYSENTADLLDLSPHHSVPSLDSSAVPPPVSLGADARLLFAPSSAVLLERAFAAREISLLNPLWIHSRVSSKPFYAILHRIDVGVVIDLEPARTEDPALSIAGAVQSQKLAVRAISRLQALPGGDVKLLCDTVVEYVRELTGYDRVMVYRFHEDEHGEVVAESRRNNLEPYIGLHYPATDIPQASRFLFRQNRVRMIADCHAAPVRVIQDPALTQPLCLVGSTLRSPHGCHAQYMANMGSIASLVMAVIISSGGDDDHNISRGSIPSAMKLWGLVVCHHTSPRCIPFPLRYACEFLMQAFGLQLNMELQLAHQLSEKHILRTQTLLCDMLLRDSPTGIVTQSPSIMDLVKCDGAALYYHGKYYPLGVTPTEVQIKDIIEWLTMCHGDSTGLSTDSLADAGYPGAAALGDAVSGMAVAYITPSDYLFWFRSHTAKEIKWGGAKHHPEDKDDGQRMHPRSSFKAFLEVVKSRSLPWENAEMDAIHSLQLILRDSFRDSAEGTSNSKAIVNGQVQLGELELRGIDELSSVAREMVRLIETATVPIFAVDTDGCINGWNAKVAELTGLSVEEAMGKSLVNDLIFKESEETVNKLLSRALRGDEDKNVEIKLKTFGPEQSKGPIFVIVNACSSRDYTKNIVGVCFVGQDVTGQKVVMDKFINIQGDYKAIVHNPNPLIPPIFASDENTCCSEWNTAMEKLTGWSRGEVVGKLLVGEVFGNCCRLKGPDALTKFMIVLHNAIGGQDCEKFPFSFFDKNGKYVQALLTANTRSRMDGEAIGAFCFLQIASPELQQAFEIQRHHEKKCYARMKELAYIYQEIKNPLNGIRFTNSLLEMTDLKDDQRQFLETSTACEKQMSKIVKDASLQSIEDGSLVLEKGEFSLGSVMNAVVSQVMIQLRERDLQLIRDIPDEIKEASAYGDQYRIQQVLCDFLLSMVRFAPAENGWVEIQVRPNIKQNSDGTDTMLFLFRFACPGEGLPPEIVQDMFSNSRWTTQEGIGLSICRKILKLMGGEVQYIRESERSFFHIVLELPQPQQAASRGTS", "notes": "phytochrome B of rice (Oryza sativa L. cv. Nipponbare), native protein in seedling extracts; Native photoreceptor; source: endogenous, soluble protein extract of rice seedlings (etiolated or white-light-grown)"}, "B2": {"name": "rice PHYB expressed from full-length cDNA in transgenic lines (protein, UniProt Q10MG9 1-1171)", "chain": "MASGSRATPTRSPSSARPAAPRHQHHHSQSSGGSTSRAGGGGGGGGGGGGGAAAAESVSKAVAQYTLDARLHAVFEQSGASGRSFDYTQSLRASPTPSSEQQIAAYLSRIQRGGHIQPFGCTLAVADDSSFRLLAYSENTADLLDLSPHHSVPSLDSSAVPPPVSLGADARLLFAPSSAVLLERAFAAREISLLNPLWIHSRVSSKPFYAILHRIDVGVVIDLEPARTEDPALSIAGAVQSQKLAVRAISRLQALPGGDVKLLCDTVVEYVRELTGYDRVMVYRFHEDEHGEVVAESRRNNLEPYIGLHYPATDIPQASRFLFRQNRVRMIADCHAAPVRVIQDPALTQPLCLVGSTLRSPHGCHAQYMANMGSIASLVMAVIISSGGDDDHNISRGSIPSAMKLWGLVVCHHTSPRCIPFPLRYACEFLMQAFGLQLNMELQLAHQLSEKHILRTQTLLCDMLLRDSPTGIVTQSPSIMDLVKCDGAALYYHGKYYPLGVTPTEVQIKDIIEWLTMCHGDSTGLSTDSLADAGYPGAAALGDAVSGMAVAYITPSDYLFWFRSHTAKEIKWGGAKHHPEDKDDGQRMHPRSSFKAFLEVVKSRSLPWENAEMDAIHSLQLILRDSFRDSAEGTSNSKAIVNGQVQLGELELRGIDELSSVAREMVRLIETATVPIFAVDTDGCINGWNAKVAELTGLSVEEAMGKSLVNDLIFKESEETVNKLLSRALRGDEDKNVEIKLKTFGPEQSKGPIFVIVNACSSRDYTKNIVGVCFVGQDVTGQKVVMDKFINIQGDYKAIVHNPNPLIPPIFASDENTCCSEWNTAMEKLTGWSRGEVVGKLLVGEVFGNCCRLKGPDALTKFMIVLHNAIGGQDCEKFPFSFFDKNGKYVQALLTANTRSRMDGEAIGAFCFLQIASPELQQAFEIQRHHEKKCYARMKELAYIYQEIKNPLNGIRFTNSLLEMTDLKDDQRQFLETSTACEKQMSKIVKDASLQSIEDGSLVLEKGEFSLGSVMNAVVSQVMIQLRERDLQLIRDIPDEIKEASAYGDQYRIQQVLCDFLLSMVRFAPAENGWVEIQVRPNIKQNSDGTDTMLFLFRFACPGEGLPPEIVQDMFSNSRWTTQEGIGLSICRKILKLMGGEVQYIRESERSFFHIVLELPQPQQAASRGTS"}, "B3": {"name": "PHYB(C364A), chromophore-less rice phyB (protein, UniProt Q10MG9 1-1171)", "chain": "MASGSRATPTRSPSSARPAAPRHQHHHSQSSGGSTSRAGGGGGGGGGGGGGAAAAESVSKAVAQYTLDARLHAVFEQSGASGRSFDYTQSLRASPTPSSEQQIAAYLSRIQRGGHIQPFGCTLAVADDSSFRLLAYSENTADLLDLSPHHSVPSLDSSAVPPPVSLGADARLLFAPSSAVLLERAFAAREISLLNPLWIHSRVSSKPFYAILHRIDVGVVIDLEPARTEDPALSIAGAVQSQKLAVRAISRLQALPGGDVKLLCDTVVEYVRELTGYDRVMVYRFHEDEHGEVVAESRRNNLEPYIGLHYPATDIPQASRFLFRQNRVRMIADCHAAPVRVIQDPALTQPLCLVGSTLRSPHGAHAQYMANMGSIASLVMAVIISSGGDDDHNISRGSIPSAMKLWGLVVCHHTSPRCIPFPLRYACEFLMQAFGLQLNMELQLAHQLSEKHILRTQTLLCDMLLRDSPTGIVTQSPSIMDLVKCDGAALYYHGKYYPLGVTPTEVQIKDIIEWLTMCHGDSTGLSTDSLADAGYPGAAALGDAVSGMAVAYITPSDYLFWFRSHTAKEIKWGGAKHHPEDKDDGQRMHPRSSFKAFLEVVKSRSLPWENAEMDAIHSLQLILRDSFRDSAEGTSNSKAIVNGQVQLGELELRGIDELSSVAREMVRLIETATVPIFAVDTDGCINGWNAKVAELTGLSVEEAMGKSLVNDLIFKESEETVNKLLSRALRGDEDKNVEIKLKTFGPEQSKGPIFVIVNACSSRDYTKNIVGVCFVGQDVTGQKVVMDKFINIQGDYKAIVHNPNPLIPPIFASDENTCCSEWNTAMEKLTGWSRGEVVGKLLVGEVFGNCCRLKGPDALTKFMIVLHNAIGGQDCEKFPFSFFDKNGKYVQALLTANTRSRMDGEAIGAFCFLQIASPELQQAFEIQRHHEKKCYARMKELAYIYQEIKNPLNGIRFTNSLLEMTDLKDDQRQFLETSTACEKQMSKIVKDASLQSIEDGSLVLEKGEFSLGSVMNAVVSQVMIQLRERDLQLIRDIPDEIKEASAYGDQYRIQQVLCDFLLSMVRFAPAENGWVEIQVRPNIKQNSDGTDTMLFLFRFACPGEGLPPEIVQDMFSNSRWTTQEGIGLSICRKILKLMGGEVQYIRESERSFFHIVLELPQPQQAASRGTS"}}, "key": {"[1]": {"biological_target": "T1, phyC-GFP fusion protein (rice PHYC-GFP) (rice) (UniProt Q10CQ8)", "T1 sequence": "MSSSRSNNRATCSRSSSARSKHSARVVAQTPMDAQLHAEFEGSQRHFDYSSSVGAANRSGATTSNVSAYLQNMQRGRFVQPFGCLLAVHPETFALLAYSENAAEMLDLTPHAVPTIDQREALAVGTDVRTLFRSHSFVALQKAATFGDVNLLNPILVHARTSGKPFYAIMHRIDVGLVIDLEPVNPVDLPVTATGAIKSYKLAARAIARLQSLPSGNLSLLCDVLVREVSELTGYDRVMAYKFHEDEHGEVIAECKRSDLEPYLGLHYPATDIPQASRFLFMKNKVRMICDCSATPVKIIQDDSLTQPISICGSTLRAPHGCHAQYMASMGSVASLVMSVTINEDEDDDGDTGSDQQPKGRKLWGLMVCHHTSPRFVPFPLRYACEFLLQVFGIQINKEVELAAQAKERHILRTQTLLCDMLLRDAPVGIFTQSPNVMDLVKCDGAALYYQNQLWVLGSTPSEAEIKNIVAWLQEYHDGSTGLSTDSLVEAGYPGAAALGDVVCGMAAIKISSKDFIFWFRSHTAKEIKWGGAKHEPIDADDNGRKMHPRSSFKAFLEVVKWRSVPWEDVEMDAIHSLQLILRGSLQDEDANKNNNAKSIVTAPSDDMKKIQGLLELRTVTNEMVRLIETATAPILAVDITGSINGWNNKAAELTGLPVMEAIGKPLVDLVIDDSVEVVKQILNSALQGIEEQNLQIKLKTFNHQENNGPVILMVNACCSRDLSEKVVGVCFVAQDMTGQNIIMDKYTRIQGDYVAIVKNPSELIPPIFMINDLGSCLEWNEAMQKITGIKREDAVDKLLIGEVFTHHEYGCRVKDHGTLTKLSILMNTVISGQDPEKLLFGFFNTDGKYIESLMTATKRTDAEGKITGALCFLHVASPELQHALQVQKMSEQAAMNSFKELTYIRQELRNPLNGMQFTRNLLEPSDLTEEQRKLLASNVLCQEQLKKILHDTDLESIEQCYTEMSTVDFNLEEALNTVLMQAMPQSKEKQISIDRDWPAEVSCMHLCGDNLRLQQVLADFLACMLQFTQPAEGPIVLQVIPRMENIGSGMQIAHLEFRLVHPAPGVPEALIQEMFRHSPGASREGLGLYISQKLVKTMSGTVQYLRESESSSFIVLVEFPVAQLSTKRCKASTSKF", "assay": "co-IP; protein extracts of rice seedlings (200 ug from dark-grown, 500 ug from continuous white-light-grown), precleared, incubated 3-4 h at 4 C with anti-PHYC antibody on protein A-Sepharose; washed six times with NETN buffer containing 900 mM NaCl and twice with NETN; immunoblot with anti-PHYB and anti-PHYC"}, "[2]": {"biological_target": "T2, rice phytochrome C (phyC), native (rice, Oryza sativa L. cv. Nipponbare (endogenous in seedlings)) (UniProt Q10CQ8)", "T2 sequence": "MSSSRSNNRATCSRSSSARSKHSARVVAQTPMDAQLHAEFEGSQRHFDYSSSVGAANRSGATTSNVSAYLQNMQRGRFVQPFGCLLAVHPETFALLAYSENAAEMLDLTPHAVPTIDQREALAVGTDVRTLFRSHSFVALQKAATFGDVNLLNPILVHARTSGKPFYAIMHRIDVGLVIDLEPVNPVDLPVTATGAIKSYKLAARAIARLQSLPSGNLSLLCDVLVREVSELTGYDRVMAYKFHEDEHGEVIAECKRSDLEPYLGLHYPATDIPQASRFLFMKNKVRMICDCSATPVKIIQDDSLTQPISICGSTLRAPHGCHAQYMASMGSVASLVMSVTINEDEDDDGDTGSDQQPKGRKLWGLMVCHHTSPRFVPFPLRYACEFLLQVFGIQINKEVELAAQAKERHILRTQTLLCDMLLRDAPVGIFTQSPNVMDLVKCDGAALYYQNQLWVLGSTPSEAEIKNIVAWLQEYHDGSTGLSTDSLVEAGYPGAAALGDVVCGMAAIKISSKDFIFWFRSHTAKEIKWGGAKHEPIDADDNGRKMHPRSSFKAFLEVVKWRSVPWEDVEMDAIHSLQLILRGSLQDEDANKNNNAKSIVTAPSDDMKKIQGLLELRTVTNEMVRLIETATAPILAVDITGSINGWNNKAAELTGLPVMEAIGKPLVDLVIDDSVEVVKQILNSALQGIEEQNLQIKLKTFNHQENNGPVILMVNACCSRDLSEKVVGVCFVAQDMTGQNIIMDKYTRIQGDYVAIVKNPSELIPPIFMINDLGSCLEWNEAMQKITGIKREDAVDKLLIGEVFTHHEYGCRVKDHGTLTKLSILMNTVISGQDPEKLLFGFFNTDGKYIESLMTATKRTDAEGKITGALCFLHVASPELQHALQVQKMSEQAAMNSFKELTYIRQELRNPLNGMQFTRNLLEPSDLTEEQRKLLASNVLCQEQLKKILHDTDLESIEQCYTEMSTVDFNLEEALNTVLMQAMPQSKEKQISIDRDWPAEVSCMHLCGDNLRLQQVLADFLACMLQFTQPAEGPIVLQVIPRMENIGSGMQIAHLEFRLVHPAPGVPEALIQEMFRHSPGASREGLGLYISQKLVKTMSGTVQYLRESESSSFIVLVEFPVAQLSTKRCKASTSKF", "assay": "co-IP; protein extracts of rice seedlings (200 ug from dark-grown, 500 ug from continuous white-light-grown), precleared, incubated 3-4 h at 4 C with anti-PHYC antibody on protein A-Sepharose; washed six times with NETN buffer containing 900 mM NaCl and twice with NETN; immunoblot with anti-PHYB and anti-PHYC"}, "[3]": {"biological_target": "T2, rice phytochrome C (phyC), native (rice, Oryza sativa L. cv. Nipponbare (endogenous in seedlings))", "assay": "SEC; protein extracts (1 mg total soluble protein) of etiolated seedlings of WT and phytochrome single and double mutants on Superdex 200 HR 10/30; 50 mM Na-phosphate pH 7.0, 150 mM NaCl, 4 C; fractions immunoblotted with anti-PHYA, anti-PHYB, anti-PHYC; column calibrated with molecular weight standards"}, "[4]": {"biological_target": "T2, rice phytochrome C (phyC), native (rice, Oryza sativa L. cv. Nipponbare (endogenous in seedlings))", "assay": "co-IP; individual SEC fractions (#17-#26, Superdex 200) of protein extract from 7-day-old etiolated WT seedlings, immunoprecipitated with anti-PHYC antibody; phyB and phyC detected by immunoblotting"}}, "note": "These are yes or no findings as the source states them, for the method shown. For part of these data: Binding seen in cells or lysates may run through a third protein. Some results given as binding are weak or reduced against the parent protein; the word gives no strength. For part of these data: Tags and fused reporters may be left off the sequences shown."}
{"binder": "B1", "values": [{"measurement": "binding", "setting": "[1]", "value": "binds"}, {"measurement": "binding", "setting": "[2]", "value": "binds"}, {"measurement": "binding", "setting": "[3]", "value": "binds"}, {"measurement": "binding", "setting": "[4]", "value": "binds"}]}
{"binder": "B2", "values": [{"measurement": "binding", "setting": "[2]", "value": "binds"}]}
{"binder": "B3", "values": [{"measurement": "binding", "setting": "[2]", "value": "binds"}]}
